Measured values published in PMC6925144, “A prospective compound screening contest identified broader inhibitors for Sirtuin 1” (Scientific Reports, 2019).
Over roughly 3,200 compounds, “TSA(with NAD+) / Primary screening (TSA) / delta Tm (K)” has its median near -0.04; the highest 2% begin near 0.37. The list shows a part of the results.

Chains of the proteins cited; added tags and fusions are not shown. Residues count along the entry.
UniProt Q96EB6, 2-747 limits assumed: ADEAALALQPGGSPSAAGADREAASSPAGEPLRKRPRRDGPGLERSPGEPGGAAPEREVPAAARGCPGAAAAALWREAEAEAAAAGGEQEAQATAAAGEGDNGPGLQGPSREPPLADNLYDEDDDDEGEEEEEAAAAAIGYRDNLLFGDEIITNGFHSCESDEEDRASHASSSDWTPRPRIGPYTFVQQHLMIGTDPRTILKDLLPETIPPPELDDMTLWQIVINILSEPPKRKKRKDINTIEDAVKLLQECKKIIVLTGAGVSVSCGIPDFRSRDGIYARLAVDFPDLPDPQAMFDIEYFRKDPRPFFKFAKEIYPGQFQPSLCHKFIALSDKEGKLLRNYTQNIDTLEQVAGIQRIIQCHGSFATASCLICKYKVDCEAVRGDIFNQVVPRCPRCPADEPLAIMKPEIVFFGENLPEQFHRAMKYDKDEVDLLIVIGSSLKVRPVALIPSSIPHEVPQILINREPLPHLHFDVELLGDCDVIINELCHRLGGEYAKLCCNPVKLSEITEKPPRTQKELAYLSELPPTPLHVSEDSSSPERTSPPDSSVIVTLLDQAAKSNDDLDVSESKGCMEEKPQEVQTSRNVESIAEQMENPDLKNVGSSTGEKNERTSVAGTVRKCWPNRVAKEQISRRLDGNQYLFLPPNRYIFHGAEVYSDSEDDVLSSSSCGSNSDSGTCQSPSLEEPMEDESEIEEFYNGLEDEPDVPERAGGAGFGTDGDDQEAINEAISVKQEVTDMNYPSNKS

target: NAD-dependent deacetylase Sirtuin 1 (human, UniProt Q96EB6); assay: primary screen, delta tm; design: single well (n = 1, as 'the same TSA'); settings: 10 µM

SMILES | TSA(with NAD+) / Primary screening (TSA) / delta Tm (K)
CC(C)(C)c1ccc(COc2ccc3c4c(c(=O)oc3c2)CCC4)cc1 | -0.23 K
Cc1[nH]c2ccccc2c1C(=O)C(C)N1CCC(C(N)=O)CC1 (stereo not drawn) | -0.04 K
O=C(C1=C(O)C(=O)N(CCCN2CCOCC2)C1c1ccc(Cl)c(Cl)c1)c1ccco1 (stereo not drawn) | 0.01 K
CC(NS(C)(=O)=O)C(=O)O (stereo not drawn) | -0.14 K
CCOC(=O)c1sc(N(Cc2ccccc2)C(=O)CSc2nnc(C3CC3)n2N)nc1C | -0.29 K
COc1ccc(C(C)=O)c2ccccc12 | -0.26 K
CCCOc1cccc(C2C(C(=O)c3ccc(OC)cc3)=C(O)C(=O)N2CCCN2CCOCC2)c1 (stereo not drawn) | -0.13 K
NC(=O)c1ncn(-c2ccncc2)c1N | -0.06 K
O=C(CCCN1C(=O)c2cccc3cccc(c23)C1=O)NNC(=O)CC12CC3CC(CC(C3)C1)C2 | 0.05 K
CCC(C)NC(=O)CSc1nnc(-c2c[nH]c3ccccc23)n1Cc1ccco1 (stereo not drawn) | -0.01 K
COCCCn1ccc(Nc2nc(C)nc3[nH]ccc23)n1 | -0.03 K
COc1ccc(C(CNC(=O)C2=COCCO2)c2c[nH]c3ccccc23)cc1 (stereo not drawn) | -0.16 K
CSc1ncc(C(=O)OCC(N)=O)n1-c1ccccc1 | -0.16 K
COc1cccc(-c2nc(CSc3nnc(-c4ccco4)n3Cc3ccccc3)cs2)c1 | -0.16 K
O=c1cc(Cn2nnc3ccccc3c2=O)c2cc3c(cc2o1)CCC3 | -0.12 K
CS(=O)(=O)c1ccc(NCCNC(=O)C23CC4CC(C2)CC(c2ccccc2)(C4)C3)c([N+](=O)[O-])c1 | 0.18 K
COc1ccc(-c2cc(C(=O)Nc3cc(Cl)ccc3C#N)c3ccccc3n2)cc1OC | -0.02 K
CC(C)(CNS(=O)(=O)c1ccc(C(N)=O)cc1)c1ccc2c(c1)OCO2 | -0.03 K
Cc1cc(C(=O)N2CCN(C(=O)Nc3cccc(NC(=O)c4ccncc4)c3)CC2)c(C)o1 | 0.09 K
O=C(CSc1nnc(Cc2ccccc2)o1)N1N=C(c2cccs2)CC1c1cccs1 (stereo not drawn) | 0.15 K
Clc1cc(Cl)cc(NC(c2cccnc2)c2ncc[nH]2)c1 (stereo not drawn) | -0.23 K
CCOc1ccc(C(=O)C2=C(O)C(=O)N(CCCN3CCOCC3)C2c2ccccn2)cc1 (stereo not drawn) | -0.02 K
CCS(=O)CCN (stereo not drawn) | -0.15 K
Cc1ccc2nc(-c3ccccc3)c(N)n2c1 | 0.38 K

SMILES | TSA(with NAD+) / Primary screening (TSA) / delta Tm (K)
COc1ccc(-c2cc(C(=O)Nc3ccc(C(N)=O)cc3)c3ccccc3n2)cc1 | 0.02 K
CN(C(=O)Cc1ccc(-c2ccccc2)cc1)C1CCc2ccccc21 (stereo not drawn) | -0.13 K
CC(C)(C)c1ccc(OCC(=O)NNC(=O)c2cccnc2O)cc1 | 0.16 K
CC(=O)Nc1ccc(CNC(=O)c2c(C)[nH]c3ccccc23)cc1 | -0.01 K
O=C(CCCCc1c[nH]nn1)Nc1cccn(Cc2ccc(F)cc2)c1=O | 0.03 K
O=C(NCc1ccc(N2CCCC2=O)cc1)c1ccc(NC(=O)C2CC2)s1 | 0.03 K
O=C(NCc1nc2ccccc2[nH]1)/C(=C/c1ccccc1)c1ccccc1 | 0.06 K
CC(=O)N1CCc2[nH]c3ccc(C)cc3c2C1 | -0.14 K
O=C1/C(=C\c2ccc(Br)cc2)CC/C1=C/c1ccccc1OC(F)F | 0.05 K
CC(=O)NCc1ccc(-c2csc(NC(=O)C(C)NC(=O)c3cccs3)n2)o1 (stereo not drawn) | -0.01 K
CC(CN)CO (stereo not drawn) | -0.11 K
O=C(CN1CCCC1=O)Nc1ccc2nc(S)[nH]c2c1 | -0.14 K
Cc1cccc(C(=O)Oc2ccc3oc4ccccc4c3c2)c1 | -0.16 K
CC1(c2cccc(C(N)=O)c2)NC(=O)NC1=O (stereo not drawn) | -0.01 K
CCC(C)c1ccc(C(NC(C)C(=O)Nc2ccc(C(N)=O)cc2)C(C)C)cc1 (stereo not drawn) | -0.11 K
COC(=O)c1ccc(Cn2ncc3ccccc3c2=O)cc1 | -0.01 K
COc1cccc(CNC(=O)COC(=O)CNC(=O)c2ccc3ccccc3c2)c1 | -0.03 K
CC(C)OC(=O)CC(Nc1ccc2nnnn2n1)c1ccccc1 (stereo not drawn) | -0.22 K
NC(=O)N1CCCN(C(=O)c2ccc3c(c2)C(=O)c2ccccc2-3)CC1 | -0.14 K
C=CCc1c(C)c(C#N)c2nc3ccccc3n2c1Cl | -0.09 K
O=C(CN1CCN(C(=O)c2ccccc2Nc2ccccc2)CC1)Nc1ccccc1Cl | -0.38 K
COc1ccc2ccccc2c1C=C1C(=O)NC(=S)NC1=O | -0.15 K
CC1CC1C(=O)Nc1ccc(C(=O)NCc2nc3cccnc3[nH]2)cc1 (stereo not drawn) | -0.13 K
NCC(N)C1CC1 (stereo not drawn) | -0.21 K

Reformatted: entries from further up.

| SMILES | TSA(with NAD+) / Primary screening (TSA) / delta Tm (K) |
| --- | --- |
| Cc1cccc(C(=O)Oc2ccc3oc4ccccc4c3c2)c1 | -0.16 K |
| CCC(C)c1ccc(C(NC(C)C(=O)Nc2ccc(C(N)=O)cc2)C(C)C)cc1 (stereo not drawn) | -0.11 K |
| NCC(N)C1CC1 (stereo not drawn) | -0.21 K |

The listing continues:

SMILES | TSA(with NAD+) / Primary screening (TSA) / delta Tm (K)
CCOc1ccc(Nc2cc(C)nc3c4c(C)cc(C)nc4nn23)cc1 | -0.03 K
CCC(C)N (stereo not drawn) | -0.01 K
CCC(O)(CC)CN | -0.05 K
CC(C)COc1ccc(C(=O)C2=C(O)C(=O)N(CCN3CCOCC3)C2c2ccc(F)cc2)cc1 (stereo not drawn) | 0.07 K
CN(c1ccccc1)S(=O)(=O)c1cccc(C(=O)Nc2sccc2C(N)=O)c1 | 0.22 K
CONC(=O)c1c(-c2ccccc2)n(C)c2ccccc12 | -0.01 K
Cc1ccc(C2(c3ccc(C)cc3)NC(=O)N(CC(=O)NC34CC5CC(CC(C5)C3)C4)C2=O)cc1 | -0.04 K
O=C(CSc1nnc(NCc2ccco2)s1)N(c1ccccc1)C1CCS(=O)(=O)C1 (stereo not drawn) | -0.12 K
CNc1ncc(C(F)(F)F)cc1Cl | -0.21 K
O=C(O)c1cccc(C(=O)O)n1 | 0.09 K
C=CCOc1ccc(/C=C/C(=O)NC(Cc2ccccc2)c2nc3ccccc3[nH]2)cc1 (stereo not drawn) | 0.02 K
O=C(NCc1ccccc1O)c1ccc2c(c1)C(=O)c1ccccc1-2 | -0.03 K
O=C(NC(Cc1ccccc1)C(=O)N1CCCCCCC1)c1ccccc1 (stereo not drawn) | -0.14 K
NC(=O)CC1CCN(c2ncnc3cc(Cl)ccc23)CC1 | -0.11 K
COC(=O)CC(C)(NC(=O)Nc1ccc(SC(C)(C)C)cc1C)c1ccncc1 (stereo not drawn) | -0.22 K
COc1ccc(S(=O)(=O)N2CCc3ccccc32)cc1C(=O)NCC12CC3CC(CC(C3)C1)C2 | 0.09 K
CC(CS(C)=O)C(=O)O (stereo not drawn) | -0.06 K
O=C(O)CC(O)C(=O)O (stereo not drawn) | 0.02 K
O=[N+]([O-])c1ccc(CSc2nc3ccccc3c3nc(CCc4c[nH]c5ccccc45)nn23)cc1 | 0.17 K
CN(C)C(=O)c1ccc(F)cc1Br | -0.09 K
Cn1cc(S(=O)(=O)N2CCN(C(=O)CCNC(=O)c3ccsc3)CC2)cc1C(N)=O | -0.02 K
Cc1cocc1CCCO | -0.13 K
Cc1cccc(NC(=O)CCNC(=O)C2=CCCCCC2)n1 | -0.05 K
Cc1nc2cc(C(=O)O)ccc2[nH]1 | -0.22 K

Some of the entries above in another layout.
SMILES	TSA(with NAD+) / Primary screening (TSA) / delta Tm (K)
O=C(NCc1ccccc1O)c1ccc2c(c1)C(=O)c1ccccc1-2	-0.03 K
NC(=O)CC1CCN(c2ncnc3cc(Cl)ccc23)CC1	-0.11 K

The results go on.

SMILES | TSA(with NAD+) / Primary screening (TSA) / delta Tm (K)
CN(c1cccc(Cl)c1)S(=O)(=O)c1cccc(C(=O)N2CCc3[nH]c4ccccc4c3C2)c1 | 0.11 K
O=C(Nc1ccc(F)cc1F)C(F)C(F)(F)F (stereo not drawn) | -0.23 K
O=C(Cc1csc(-c2ccco2)n1)N(C/C=C/c1ccccc1)c1ccc2c(c1)OCCO2 | -0.06 K
Cc1ccc(-c2nnc(SCC(=O)NC(C)C(C)C)n2N)cc1 (stereo not drawn) | -0.01 K
CC(C)(N)CCCN | -0.26 K
C=CCOc1cccc(C2C(C(=O)c3cccs3)=C(O)C(=O)N2CCCN2CCOCC2)c1 (stereo not drawn) | 0.17 K
O=c1[nH]c(=O)c2cc(S(=O)(=O)N3CCc4ccccc4C3Cc3ccccc3)ccc2[nH]1 (stereo not drawn) | 0.08 K
CN(c1ccc(C(N)=O)cc1)S(=O)(=O)c1ccc(F)c(C(F)(F)F)c1 | -0.01 K
CN(C)C(CNC(=O)C1CCCc2ccccc21)c1ccccc1 (stereo not drawn) | -0.03 K
CCCNC(=O)c1ccc2[nH]c(C)c(C)c2c1 | 0.05 K
COc1ccc(CCNCc2ccc(OCc3ccccc3)cc2)cc1 | -0.13 K
CCCOc1ccc(C(=O)C2=C(O)C(=O)N(CCCN3CCOCC3)C2c2ccc(C)o2)cc1 (stereo not drawn) | -0.03 K
CCCCCOc1ccc(C(=O)CCC(=O)OCC(=O)Nc2cccc(S(=O)(=O)/N=C3/CCCCCN3)c2)cc1 | 0.06 K
NC(=O)C1CCN(C(=O)c2c[nH]c3ccc(Br)cc23)CC1 | -0.05 K
O=C(Cc1cccc2ccccc12)Nc1ccccc1Cc1ccccc1 | 0.07 K
CCONC(=O)c1cccc(I)c1 | -0.08 K
COc1ccc(CCn2c(C)cc(C(=O)COC(=O)C34CC5CC(CC(O)(C5)C3)C4)c2C)cc1 | -0.19 K
CCOCc1cn(CC(=O)c2ccc(OC)cc2)c(C)nc1=N | -0.08 K
CCOc1ccc(Oc2ccc(NS(=O)(=O)c3cc(C(=O)O)ccc3Cl)cc2)cc1 | -0.08 K
Cn1ccc(NC(=O)CSc2ccc3c4c(cccc24)C(=O)c2ccccc2-3)n1 | 0.02 K
Cc1cc(C(=O)NCc2nnc3ccccn23)c(C)n1-c1ccccc1 | -0.02 K
O=C(CSC1CCS(=O)(=O)C1)Nc1nnc(SCc2c(Cl)cccc2Cl)s1 (stereo not drawn) | -0.18 K
CCC(C)C(C)N (stereo not drawn) | -0.06 K
Cc1ccc(-c2noc(C(C)N3CCN(c4nc(C(F)(F)F)nc5ccccc45)CC3)n2)cc1 (stereo not drawn) | 0.15 K
